Laboratory results reported in PubChem BioAssay AID1671190 (National Center for Advancing Translational Sciences (NCATS), 2021).
The campaign covered roughly 580,000 compounds. About 6,100 (1.1%) were called active. Inconclusive results, whose numbers are uncertain, are shown with a selection of clear calls. Calls come from the whole dose curve; as a rule, active = well fitted inhibition curve with a large enough effect; inconclusive = small, poorly fitted or top-dose-only effect, or another doubt; inactive = no such curve, though single readings can be large or run the other way. Potencies beside an inconclusive call are fits to weak or partial responses and may not hold up.

Sequences of proteins named here, by UniProt entry; tags and fusion partners are left off.
UniProt P18054, whole entry, looked up: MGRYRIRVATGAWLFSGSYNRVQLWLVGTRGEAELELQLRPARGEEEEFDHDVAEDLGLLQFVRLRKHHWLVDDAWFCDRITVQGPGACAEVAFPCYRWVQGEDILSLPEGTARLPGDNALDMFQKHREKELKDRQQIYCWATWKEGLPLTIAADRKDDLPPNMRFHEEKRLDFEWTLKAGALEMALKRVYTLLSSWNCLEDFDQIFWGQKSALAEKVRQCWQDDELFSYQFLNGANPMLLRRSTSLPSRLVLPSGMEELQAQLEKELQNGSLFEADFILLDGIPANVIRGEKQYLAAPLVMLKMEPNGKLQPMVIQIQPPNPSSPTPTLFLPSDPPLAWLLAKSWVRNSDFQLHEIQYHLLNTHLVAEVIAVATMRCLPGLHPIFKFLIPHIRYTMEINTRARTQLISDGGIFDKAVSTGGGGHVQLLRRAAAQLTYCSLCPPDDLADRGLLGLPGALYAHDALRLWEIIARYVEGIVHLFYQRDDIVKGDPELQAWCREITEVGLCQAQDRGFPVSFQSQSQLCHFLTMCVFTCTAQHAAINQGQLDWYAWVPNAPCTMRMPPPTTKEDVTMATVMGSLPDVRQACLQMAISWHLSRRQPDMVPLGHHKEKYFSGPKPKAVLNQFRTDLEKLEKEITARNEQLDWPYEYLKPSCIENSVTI

Molecular target: Polyunsaturated fatty acid lipoxygenase ALOX12 (Homo sapiens) (UniProt P18054)
Assay: Primary qHTS assay for inhibitors of human arachidonate 12S-lipoxygenase (ALOX12): Round 2
Details: purified 12hLO, xylenol orange hydroperoxide absorbance; activity change, negative = inhibition: at 108 µM (top of the series) unless noted
Summary of the method: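 Purified human 12hLO (150 nM final) in 25 mM Hepes, 0.01% Triton X-100, pH 7.0 was preincubated 15 min at room temperature with compound. Then 40 uM arachidonic acid was added, 30 min. Hydroperoxide was read by Fe-XO absorbance ratio 573/405 nm.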
% is set by controls: 0 for no effect and ±100 for the full control effect; potency is the fitted concentration of half-maximal effect.

Structure (SMILES) | Potency | activity change, negative = inhibition
COC(=O)c1ccc(CSc2nc3ccncc3n2Cc2ccc(F)cc2)cc1 | inconclusive: 79.4 µM [inhibitor, partial curve, poor fit] | –
CCn1c(=O)cc(SCC(=O)NCc2ccc(C)o2)c2ccccc21 | inactive | –
O=C1COc2ccc(-c3ccccc3)nc2CN1Cc1ccc(F)cc1 | inconclusive: 44.7 µM [inhibitor, full curve, poor fit] | –
Fc1ccc(NC(=S)NCc2ccc3c(c2)OCO3)cc1 | inconclusive: 50.1 µM [inhibitor, partial curve, poor fit] | –
CC(C)Nc1nc(Nc2ccc(C#N)cc2)c2sccc2n1 | inactive | –
COc1ccc(S(=O)(=O)N2CCC3(CC2)CC(N(C)Cc2ccccc2)CCO3)cc1 (stereo unspecified) | inconclusive: 20 µM [inhibitor, full curve] | –
O=C(c1cc2ccccc2oc1=O)N(Cc1ccco1)CC1CCCO1 (stereo unspecified) | inactive | –
CCOc1ccc(CNc2nc(NCc3ccc(OCC)cc3)n(C(=O)C(C)C)n2)cc1 | inconclusive: 39.8 µM [inhibitor, partial curve, poor fit] | –
COc1ccc(N=Nc2c(C)[nH]c3ccccc23)cc1 | inconclusive: 39.8 µM [inhibitor, partial curve, poor fit] | –
Cc1ccc(C(=O)NC(=S)Nc2cccc(-c3nc4ccccc4s3)c2)cc1 | inconclusive: 1.78 µM [inhibitor, full curve, poor fit] | –
CCCCCC/C=C/C=O | inconclusive: 70.8 µM [inhibitor, single point] | –
COCC(C)Nc1ncnc2c1cnn2-c1cccc(Cl)c1 (stereo unspecified) | inconclusive: 100 µM [inhibitor, partial curve, poor fit] | –
Cc1cc(C)cc(OCC(=O)N2N=C(C(F)(F)F)CC2(O)C(C)(C)C)c1 (stereo unspecified) | inconclusive: 126 µM [inhibitor, single point] | –
COc1ccc(CCNC(=O)CSc2nn(-c3ccccc3)c(=S)s2)cc1 | inconclusive: 3.98 µM [inhibitor, full curve, poor fit] | –
Cc1ccc(C2=NN=C(NC(=O)C(F)(F)F)SC2)cc1 | inconclusive: 89.1 µM [inhibitor, partial curve, poor fit] | –
Cc1ccc(CN2CC(C(=O)N3CCN(S(=O)(=O)c4cccc(F)c4)CC3)CC2=O)cc1 (stereo unspecified) | inconclusive: 44.7 µM [inhibitor, partial curve, poor fit] | –
Cc1cnc(C2CC2)n1CC1CCN(C(=O)C(C)C)CC1 | inactive | –
CCCC(=O)N1CCN(Cc2ccc3c(c2)OCO3)CC1 | inactive | –
COc1ccc(C(=O)N2CCC3(CC2)NC(=O)N(c2ccc(F)cc2)N3)cc1F | active: 2 µM | –
COc1cc2c(cc1N)-c1ccc(N)cc1C2=O | inconclusive: 89.1 µM [inhibitor, partial curve, poor fit] | –
O=C(O)Cn1ccc2cc(OCCc3cccc(-c4ccc(F)cc4)c3)cnc21 | active: 50.1 µM | –
CN(C)c1cc[n+](CC(=O)c2cccs2)cc1 | inconclusive: 89.1 µM [inhibitor, single point] | –

Structure (SMILES) | Potency | activity change, negative = inhibition
Cc1c(C(=O)Nc2ccc3oc(-c4ccc(F)cc4)nc3c2)cccc1[N+](=O)[O-] | inconclusive: 56.2 µM [inhibitor, partial curve, poor fit] | –
Cc1cccc(NC(=S)NC(=O)c2ccc(Br)o2)c1C | inconclusive: 20 µM [inhibitor, full curve, poor fit] | –
COc1cc(/C=C2/C(=O)ON=C2c2ccccc2)ccc1O | inconclusive: 50.1 µM [inhibitor, partial curve, poor fit] | –
COc1ccc(NC(=O)O[C@@H]2CO[C@H]3[C@@H]2OC[C@@H]3NC(=S)NC2CCCCC2)cc1 | inactive | –
COc1ccc(N2CCN(Cc3nc4sc(C)c(C)c4c(=O)[nH]3)CC2)cc1 | inconclusive: 100 µM [inhibitor, single point] | –
Fc1cccc(Cl)c1C1NC(=S)NC2=C1CCc1ccccc12 (stereo unspecified) | active: 39.8 µM | –
Cc1cc(-c2c(C)[nH]n(-c3ccc(Cl)cc3)c2=O)n(-c2ccc(Cl)cc2)n1 | inconclusive: 28.2 µM [inhibitor, partial curve, poor fit] | –
O=C(O)c1nn(CC(=O)N(CCc2ccccc2)Cc2ccccc2)c(=O)c2ccccc12 | inactive | –
Cc1cccc(-n2nnnc2SCc2nc(N)c3ccccc3n2)c1 | inactive | –
CSc1ccccc1NC(=O)COC(=O)Cc1ccsc1 | inconclusive: 126 µM [inhibitor, single point] | –
CCOC(=O)[C@H]1[C@H]2COc3cc(OC)ccc3[C@@H]2N2C(=O)c3cc(F)ccc3NC(=O)[C@@]12C | inconclusive: 89.1 µM [inhibitor, single point] | –
CC(=O)Oc1ccc2c(=O)c(-c3ccc4c(c3)OCCCO4)c(C)oc2c1 | inactive | –
COC(=O)CCC(=O)Nc1ccc(N=Nc2ccccc2)cc1 | inconclusive: 56.2 µM [inhibitor, partial curve, poor fit] | –
CC1CN=C(c2cc(Cl)c(N)c(Cl)c2)c2c3ccc(C(F)(F)F)cc3[n+]([O-])n21 (stereo unspecified) | inconclusive: 79.4 µM [inhibitor, single point] | –
O=C1NC[C@@H](CCCCN2C[C@H](Cc3ccc(O)cc3)N(CC3CCCCC3)C(=O)C2=O)N(CC2CCCCC2)C1=O | active: 22.4 µM | –
O=C(c1ccc(F)c(Cl)c1)N1CCC(Cc2nc(-c3cnccn3)no2)CC1 | inactive | –
Cc1ccc(SCC(=O)N2CCN(c3ccc(F)cc3)CC2)cc1 | inconclusive: 44.7 µM [inhibitor, partial curve, poor fit] | –
Cc1ccc(S(=O)(=O)N2C3CCCC2CC(=O)C3)cc1 | inconclusive: 25.1 µM [inhibitor, full curve, poor fit] | –
CC(Sc1nnc2c(Cl)cc(C(F)(F)F)cn12)C(=O)c1ccc(C(C)(C)C)cc1 (stereo unspecified) | inconclusive: 126 µM [inhibitor, single point] | –
COCCn1c(C)cc(C(=O)COc2ccc(N(C)S(=O)(=O)c3ccc(C)cc3)cc2)c1C | inconclusive: 31.6 µM [inhibitor, single point] | –
CC1CCC/C(=C\c2ccc(O)cc2)C1=O (stereo unspecified) | inconclusive: 100 µM [inhibitor, single point] | –
COCC1CN(S(=O)(=O)c2ccc(C#N)cc2)CC12CCNCC2 (stereo unspecified) | inactive | –

Exported in markdown: part of the list above.

| Structure (SMILES) | Potency | activity change, negative = inhibition |
| --- | --- | --- |
| COc1cc(/C=C2/C(=O)ON=C2c2ccccc2)ccc1O | inconclusive: 50.1 µM [inhibitor, partial curve, poor fit] | – |
| O=C1NC[C@@H](CCCCN2C[C@H](Cc3ccc(O)cc3)N(CC3CCCCC3)C(=O)C2=O)N(CC2CCCCC2)C1=O | active: 22.4 µM | – |
| O=C(c1ccc(F)c(Cl)c1)N1CCC(Cc2nc(-c3cnccn3)no2)CC1 | inactive | – |
| Cc1ccc(SCC(=O)N2CCN(c3ccc(F)cc3)CC2)cc1 | inconclusive: 44.7 µM [inhibitor, partial curve, poor fit] | – |
| COCC1CN(S(=O)(=O)c2ccc(C#N)cc2)CC12CCNCC2 (stereo unspecified) | inactive | – |

(continued)

Structure (SMILES) | Potency | activity change, negative = inhibition
NC(N)=N/N=C/c1ccc(OCc2ccccc2)cc1 | inconclusive: 89.1 µM [inhibitor, partial curve, poor fit] | –
CC(=O)Nc1ccc(CN2CCC3(CC2)COc2ccccc2C(=O)N3)cc1 | inconclusive: 44.7 µM [inhibitor, partial curve] | –
COC(=O)c1c(NC(=O)c2c(OC)cccc2OC)sc2c1C(C(=O)OC)CC2 (stereo unspecified) | inconclusive: 50.1 µM [inhibitor, partial curve, poor fit] | –
Cc1nc(N2CCN(C(=O)c3ccc(C#N)cc3)CC2)cc(C(F)(F)F)n1 | inconclusive: 2.51 µM [inhibitor, full curve, poor fit] | –
Cc1ccc(-c2nc3ccc(C)cn3c2Cc2ccsc2)cc1 | inconclusive: 14.1 µM [inhibitor, full curve] | –
CCn1c(O)c(N=N)c2ccccc21 | inactive | –
Cc1ccc(S(=O)(=O)NCc2ccccc2)cc1C(=O)N(C)CC(=O)Nc1c(Cl)cccc1Cl | inconclusive: 3.55 µM [inhibitor, full curve, poor fit] | –
COC(=O)C1=C(C)N(Cc2ccc(C)cc2)C(=O)/C1=C\c1cc(OC)c(OC)c(OC)c1 | inconclusive: 50.1 µM [inhibitor, partial curve, poor fit] | –
N#Cc1c(N)n(-c2ccc(N)cc2)c2nc3ccccc3nc12 | inactive | –
COc1ccc(CCNC(=O)Nc2ccc3c(c2)c(=O)n(C)n3Cc2ccc(Cl)cc2)cc1OC | inconclusive: 35.5 µM [inhibitor, partial curve] | –
Cc1ccc(CN[C@@H]2CO[C@H](CNC(=O)c3ccccc3)[C@H]2O)cc1 | inconclusive: 63.1 µM [inhibitor, partial curve] | –
Cc1ccc2ccc3cc(C(=O)Nc4ccc(C)c(F)c4)nc3c2[nH]1 | inactive | –
Cc1cccc(C(=O)N2CCN(CCNC(=O)C(=O)Nc3ccccc3)CC2)c1 | inactive | –
CCOc1cc(CN2CCN(c3cccc(C(F)(F)F)c3)CC2)ccc1OC | inconclusive: 1.78 µM [inhibitor, full curve, poor fit] | –
CCN(CC)c1ccc(CN2CCC(C(=O)NCc3ccc(C)cc3)CC2)cc1 | inconclusive: 20 µM [inhibitor, partial curve] | –
FC(F)(F)c1ccccc1-c1nc(-n2ccnc2)c2ccccc2n1 | active: 15.8 µM | –
C=CCOc1cc(C)c2c(c1C)[C@H](O)C([C@H](C)C(=O)N(C)Cc1ccccc1)CC2 (stereo partly specified) | inconclusive: 63.1 µM [inhibitor, full curve] | –
CCN(CCn1cccn1)C(=O)CC1C(=O)NCCN1Cc1ccc(F)c(F)c1 (stereo unspecified) | inconclusive: 28.2 µM [inhibitor, partial curve, poor fit] | –
N#Cc1c(N)sc2c1CCCCCCCCCC2 | inconclusive: 28.2 µM [inhibitor, partial curve, poor fit] | –
Cc1ccc(OCCC(=O)N2CCN(S(=O)(=O)c3cccs3)CC2)cc1 | inconclusive: 112 µM [inhibitor, partial curve, poor fit] | –
CC1=NOC2(CCCN(C(=O)c3ccccc3)C2)C1 (stereo unspecified) | – | inactive: 9.59% [at 12.5 µM]
Cn1ccc(C(=O)N2CCC(c3nnc4n3C(C(=O)N3CCOCC3)CC4)CC2)n1 (stereo unspecified) | – | inactive: -1.93% [at 6.33 µM]
